Results deposited as PubChem BioAssay AID1224830 (NIAID, 2016).
In all, the deposit lists about 18,000 reagents; this is a part drawn at random. In the full data, about 2,900 (16%) are marked active. 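Calls are made per well; low scores hint the gene aids the LPS response, high scores that it dampens it.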 A number with no mark means an inactive call. Repeated entries: four replicate wells of each siRNA pool. No sequences are given here.

- Assay: 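Regulators of TLR4 signalling towards TNF-alpha in macrophage-like cells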 (primary screen)
- System: human THP-1 monocytic leukaemia cells, TNF dual-luciferase reporter clone, PMA-differentiated to macrophage-like cells
- Knock-down reagent: siRNA pool against human genes, 50 nM
- Time to read-out: LPS for 4 h, given about 3 days after siRNA transfection
- Treatment: bacterial LPS (TLR4 ligand), 10 ng/ml
- Measurement: 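TNF firefly reporter luminescence divided by renilla, normalised to the plate median, then turned into a robust z-score for each replicate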
- Direction: TNF reporter robust z-score: higher = stronger TNF reporter response to LPS
- Active means: 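Each well counts as active if its z-score is over 2.8 or under -1.5; controls are left without a call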

gene knocked down	TNF reporter robust z-score
QSER1	-0.77
QSER1	1.25
QSER1	-0.67
QSER1	1.44
ECHDC2	-1.14
ECHDC2	-0.68
ECHDC2	-1.15
ECHDC2	-0.48
PTPN6	-1.25
PTPN6	1.56
PTPN6	-0.23
PTPN6	-1.65 (active)
ATP6V1F	-0.98
ATP6V1F	0
ATP6V1F	-0.34
ATP6V1F	0.19
DHH	1.82
DHH	1.28
DHH	4.8 (active)
DHH	-0.32
ZFP82	0.41
ZFP82	0.94
ZFP82	1.75
ZFP82	2.42
CLCN7	0.51
CLCN7	0.18
CLCN7	0.13
PNLIPRP2	-0.51
PNLIPRP2	-0.62
PNLIPRP2	-0.13
PNLIPRP2	-0.48
DDX41	-1.32
DDX41	-1.36
DDX41	-1.21
DDX41	-0.92
TLK1	-0.45
TLK1	0.11
TLK1	-0.2
TLK1	-0.72
NSMCE1	-0.04
NSMCE1	-0.7
NSMCE1	2.39
NSMCE1	-1.13
ARFIP2	4 (active)
ARFIP2	1.19
ARFIP2	0.16
ARFIP2	1.4
SLC22A9	2.05
SLC22A9	1.46
SLC22A9	0.17
SLC22A9	3.52 (active)
FTMT	1.39
FTMT	4.54 (active)
FTMT	1.72
FTMT	3.85 (active)
PTGR3	0.95
PTGR3	0.64
PTGR3	2.65
PTGR3	0.49
CT45A5	-0.53
CT45A5	-0.4
CT45A5	-0.21
CT45A5	0.59
VTI1B	-0.54
VTI1B	-0.35
VTI1B	0.04
VTI1B	0.65

Next part (11 carried over from the part before).
gene knocked down	TNF reporter robust z-score
PTGR3	0.64
PTGR3	2.65
PTGR3	0.49
CT45A5	-0.53
CT45A5	-0.4
CT45A5	-0.21
CT45A5	0.59
VTI1B	-0.54
VTI1B	-0.35
VTI1B	0.04
VTI1B	0.65
TCP1	2.87 (active)
TCP1	0.4
TCP1	2.43
TCP1	3.18 (active)
ACAD8	-0.47
ACAD8	-1.24
ACAD8	-0.11
ACAD8	-0.42
VHL	-0.63
VHL	-0.36
VHL	0.17
VHL	-1.06
PCOLCE2	-0.68
PCOLCE2	-0.83
PCOLCE2	-0.14
PCOLCE2	-0.05
ATXN2L	0.12
ATXN2L	-0.21
ATXN2L	-0.14
ATXN2L	0.29
CCDC30	1.57
CCDC30	1.06
CCDC30	-0.34
CCDC30	0.73
XAB2	-0.41
XAB2	-0.49
XAB2	-0.88
XAB2	-0.93
ST8SIA5	0.63
ST8SIA5	1.17
ST8SIA5	1.13
ST8SIA5	1.36
HEXIM2	-0.83
HEXIM2	-0.92
HEXIM2	-1.21
HEXIM2	-0.57
CCL17	0.34
CCL17	0.15
CCL17	0.14
CCL17	2.27
CNTN4	-1
CNTN4	-0.68
CNTN4	-0.87
